## Percent effect of library compounds

Mtb glucose medium: 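Whole-cell growth test on Mycobacterium tuberculosis, read after 3 days in glucose-containing 7H9 medium; the read-out is not stated. Concentration: 50 µM. Higher reads as more growth inhibition (inferred: compounds with an IC50 in retests scored well above the rest). Of about 69,000 compounds tested this way, about 760 (1.1%) reached 50% or more in at least one test.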
Mtb cholesterol medium: 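Whole-cell growth test on Mycobacterium tuberculosis, read after 4 days in a medium based on cholesterol and the lipid DPPC; the read-out is not stated. Concentration: 50 µM. The record gives no direction; compounds that gave an IC50 in retests scored well above the rest, so higher reads as more growth inhibition. Size under these conditions: about 69,000 compounds, about 370 of them at 50% or above in at least one test.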

The filed quantity is “Percent Effect” (%). The controls that fix the scale are not given in the record; negative values are as filed. This is an unselected part of the compounds tested. Two or more numbers in one place are separate tests of the same structure; such repeats can differ widely.

With Cc1cc(F)c2c(c1)CCCN2Cc1nc2c(cnn2C)c(=O)[nH]1 the screen gave Mtb glucose medium: 14.58%; Mtb cholesterol medium: 9.233%. With Cn1ncc2c(=O)[nH]c(CN3CCCC3Cc3ccccc3)nc21 (stereo not drawn) the screen gave Mtb glucose medium: 17.53%; Mtb cholesterol medium: 5.354%. Result for O=C(O)C(F)(F)F.[H][C@@]12CCN(c3cccnc3)C[C@]1([H])CN(C(=O)c1ccc(O)cc1)C2 was Mtb glucose medium: -9.724%; Mtb cholesterol medium: 4.342%. Result for CN(C)C(=O)CN1CCN(c2cc(N3CCCC3CO)ncn2)CC1 (stereo not drawn) was Mtb glucose medium: -8.547%; Mtb cholesterol medium: -0.7816%. With Cc1nc2n(n1)CC(NCCC(=O)Nc1cc(C)on1)CC2 (stereo not drawn) the screen gave Mtb glucose medium: 4.405% and -29.43%; Mtb cholesterol medium: 8.041%. CC1(C(=O)N2CCOCC2)CN(Cc2ncc[nH]2)CCO1 (stereo not drawn) read Mtb glucose medium: -28.68%; Mtb cholesterol medium: -25.41%.

COc1ccc(OC)c(CNCc2c(C)nc3sc(C)cn23)c1 read Mtb glucose medium: -40.23%; Mtb cholesterol medium: -17.17%. O=C(O)CCc1cc2n(n1)CCCN(C(=O)c1ccc(Cl)s1)C2 gave Mtb glucose medium: -25.62% and -6.858%; Mtb cholesterol medium: -33.78%. Cc1cc(C)c(C(=O)N2CCOC(CCN(C)C)C2)o1 (stereo not drawn) gave Mtb glucose medium: 18.3% and -24.25%; Mtb cholesterol medium: 10.15%. With Cc1cnn(CC2CC2)c1NC(=O)c1cccnc1O the screen gave Mtb glucose medium: -6.606%; Mtb cholesterol medium: 3.126% and -8.543%. COc1ccccc1CN(CC1CCCO1)C(=O)c1ccc(F)cn1 (stereo not drawn) gave Mtb glucose medium: 1.1% and -10.98%; Mtb cholesterol medium: -0.6727%. O=C(Cc1ccc2c(c1)CCO2)N1CCCC1c1noc(C2CC2)n1 (stereo not drawn) read Mtb glucose medium: -0.3537%; Mtb cholesterol medium: -17.23%.

With CC(CNC(=O)c1cnccn1)Oc1cccc(Br)c1 (stereo not drawn) the screen gave Mtb glucose medium: 67%; Mtb cholesterol medium: 47.18% and 47.04%. With CC(=O)N1CCC(N2CCOC[C@H]2c2nc(-c3cccnc3)c[nH]2)CC1 the screen gave Mtb glucose medium: -5.099% and -46.95%; Mtb cholesterol medium: -42.41%. Cc1ccnc(C2COCCN2C)n1 (stereo not drawn) read Mtb glucose medium: -15.53%; Mtb cholesterol medium: 7.31% and -0.5667%. Fc1cccc(-n2cccn2)c1NCc1nnc(C2CC2)o1 gave Mtb glucose medium: 5.772%; Mtb cholesterol medium: -18.22%. CC(c1nc(C2CC2)no1)N(C)Cc1ccc2c(c1)OCCO2 (stereo not drawn) read Mtb glucose medium: 8.931%; Mtb cholesterol medium: 6.819%. With CC(C)(C)c1nc(CC(=O)NCCC(=O)Nc2ccncc2)cs1 the screen gave Mtb glucose medium: 5.01%; Mtb cholesterol medium: -34.72%.

Result for CCCC(O)CN1CC(C)(C)CN(C(=O)c2ccccc2)CC1=O (stereo not drawn) was Mtb glucose medium: -8.991%; Mtb cholesterol medium: -16.37%. [H][C@@]12COC[C@]1([H])[C@H](OCc1csc(C)n1)CN2Cc1ccccn1 read Mtb glucose medium: -10.23%; Mtb cholesterol medium: 10.01%. Cc1cc(C)c2c(NCCC3(O)CCCC3)ncnc2n1 gave Mtb glucose medium: -1.238%; Mtb cholesterol medium: 0.2686%. With CC(C)(C)c1n[nH]c(C2CN(C(=O)CCc3cccs3)CCO2)n1 (stereo not drawn) the screen gave Mtb glucose medium: 15.68%; Mtb cholesterol medium: 10.26%. CCc1ccc(C(=O)N2CCCN(Cc3nccn3CC)CC2)s1 gave Mtb glucose medium: -10.67%; Mtb cholesterol medium: 0.8727%. Result for Cc1ccc(NC(=O)N(CCO)Cc2ccsc2)cc1 was Mtb glucose medium: 8.763%; Mtb cholesterol medium: -12.67%.

For CC(C)N1CCCn2nc(C(=O)NCCc3c[nH]cn3)cc2C1 the result was Mtb glucose medium: -16.83% and -3.938%; Mtb cholesterol medium: -19.88%.

Once more, the final 2:

{"structure": "Cc1ccc(NC(=O)N(CCO)Cc2ccsc2)cc1", "Mtb glucose medium": 8.763, "Mtb cholesterol medium": -12.67}
{"structure": "CC(C)N1CCCn2nc(C(=O)NCCc3c[nH]cn3)cc2C1", "Mtb glucose medium": "-16.83 and -3.938", "Mtb cholesterol medium": -19.88}

Measurements from “University of Dundee, Small-Polar-MMV Screening Library” (2021), ChEMBL document CHEMBL3988442.